No constants are given. Whether binding was seen depends on the method and setting. In cells and extracts the contact can be indirect. Binding calls can cover weak binding; strength is not graded here.
Target: recombinant ULK1 (co-purified with pICln, SD Figure 1A) (human) (UniProt O75385)
Assay: pull-down; recombinant ULK1 and pICln co-purified (SD Figure 1A); for pulldown assays recombinant proteins were pre-incubated 1.5 h at 4°C, then sepharose for one hour; both purified

Chains of the proteins cited; added tags and fusions are not shown. Lines headed by an entry give the natural chain unless they say otherwise; changes in a name come on top.
UniProt O75385: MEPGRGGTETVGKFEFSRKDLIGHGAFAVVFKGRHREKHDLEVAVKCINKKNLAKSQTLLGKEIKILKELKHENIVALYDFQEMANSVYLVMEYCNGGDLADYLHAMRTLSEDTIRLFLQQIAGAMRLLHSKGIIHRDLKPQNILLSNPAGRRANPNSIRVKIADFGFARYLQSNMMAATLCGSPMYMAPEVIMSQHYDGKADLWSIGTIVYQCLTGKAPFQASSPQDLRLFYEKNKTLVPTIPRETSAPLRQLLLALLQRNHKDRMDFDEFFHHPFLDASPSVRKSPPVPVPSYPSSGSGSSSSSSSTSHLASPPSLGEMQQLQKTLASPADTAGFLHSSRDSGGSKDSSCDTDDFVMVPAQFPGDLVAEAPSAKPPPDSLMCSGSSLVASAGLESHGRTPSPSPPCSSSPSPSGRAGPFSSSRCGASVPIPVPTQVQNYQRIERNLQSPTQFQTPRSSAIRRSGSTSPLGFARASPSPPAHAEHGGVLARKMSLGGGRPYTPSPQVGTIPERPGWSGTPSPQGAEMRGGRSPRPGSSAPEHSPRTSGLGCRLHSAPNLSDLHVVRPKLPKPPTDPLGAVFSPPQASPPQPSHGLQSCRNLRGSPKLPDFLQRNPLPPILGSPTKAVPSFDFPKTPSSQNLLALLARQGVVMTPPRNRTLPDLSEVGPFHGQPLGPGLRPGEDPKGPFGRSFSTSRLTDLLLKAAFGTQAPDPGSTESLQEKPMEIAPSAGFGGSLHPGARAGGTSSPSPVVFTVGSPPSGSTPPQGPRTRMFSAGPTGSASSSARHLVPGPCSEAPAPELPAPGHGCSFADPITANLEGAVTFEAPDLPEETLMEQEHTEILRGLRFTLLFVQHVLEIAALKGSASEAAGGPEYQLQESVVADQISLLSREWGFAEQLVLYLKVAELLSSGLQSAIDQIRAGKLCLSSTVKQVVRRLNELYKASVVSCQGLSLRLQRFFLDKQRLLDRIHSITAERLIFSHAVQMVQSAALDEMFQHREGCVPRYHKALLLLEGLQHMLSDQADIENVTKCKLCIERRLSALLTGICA

binding: binds
Substance: recombinant pICln (co-purified with ULK1, SD Figure 1A) (from UniProt P54105 1-237)

— article PMC8216288
